## Primary screen of a compound library

Mtb cholesterol medium: 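Phenotypic screen: M. tuberculosis growth, cholesterol and DPPC medium, 4 days; the read-out is not stated. Concentration: 50 µM. Higher reads as more growth inhibition (inferred: compounds with an IC50 in retests scored well above the rest). About 69,000 compounds were tested under these conditions; 0.54% (about 370) showed 50% or more at least once.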
Mtb glucose medium: 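Whole-cell growth test on Mycobacterium tuberculosis, read after 3 days in glucose-containing 7H9 medium; the read-out is not stated. Compounds at 50 µM. Direction is inferred from retests: higher values go with more growth inhibition. About 69,000 compounds were tested under these conditions; 1.1% (about 760) showed 50% or more at least once.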

Each number is a percent effect as filed. The record does not define 0% and 100%; most values in the screen are far below 50% and negative numbers occur (in some assays of this library far below -100). The compounds are a random part of those screened. Two or more numbers in one place are separate tests of the same structure; such repeats can differ widely.

SMILES,Mtb cholesterol medium,Mtb glucose medium
Cc1nn(C)c(N(C)C)c1CNC1CCOc2ccccc21 (centres undefined),15.68,20.14
Cc1nc(CN2CCC(N3CCN(C)C3=O)CC2)no1,14.65,-20.57
O=C(O)CCCN1C[C@@H](c2ccccc2F)[C@@]2(CCCCC(=O)N2)C1,5.016 & -5.573,14.67
CN1CCN(C2COC3(CCN(CC4CC4)CC3)C2)CC1.O=C(O)C(F)(F)F.O=C(O)C(F)(F)F.O=C(O)C(F)(F)F (centres undefined),5.201,-8.029 & -0.1219
Cc1cnc(C2CCCN(C(=O)c3c[nH]c(=O)[nH]c3=O)C2)s1 (centres undefined),-19.66,-16.76
CC(=O)Nc1nc(COc2nc(C)no2)cs1,-13.13,-18.44
CNC(=O)CN(C)C(=O)Cc1csc(C(C)C)n1,-9.085,4.443
Clc1ccc(OCCN2CCN(CCn3cncn3)CC2)cc1,-6.348,3.411
O=C(O)C(F)(F)F.O=C(c1ccoc1)N1CCO[C@]2(CCC[C@H]2COCc2cccnc2)C1,-16.32,-29.71 & 0.6339
Cc1cc(N(C)C)nc(C2(C)CCCN2C(=O)c2ccccc2)n1 (centres undefined),-2.155,19.1
COc1ccc(C(C)Nc2ncc(C(N)=O)cc2Cl)cc1F (centres undefined),-11.32,20.95
Fc1ccc(CN2CCCC(c3nccnc3-n3ccnc3)C2)cc1 (centres undefined),-10.82,8.106
O=C(O)C(F)(F)F.[H][C@@]12CCN(S(=O)(=O)C3CC3)C[C@]1(COc1ncccc1F)CCO2,2.442 & -6.972,2.426 & 2.002
CN(C)c1nc2c(c(N(C)Cc3n[nH]c4c3CCCC4)n1)CCNCC2,27.23,37.94
COc1ccccc1C(=O)N1CCNCC1C(N)=O.Cl (centres undefined),15.81 & 13.37,-22.46
Cc1cc(C)nc(Nc2cc(C3CCCN(C)C3)nc(C)n2)n1.O=CO (centres undefined),-11.84,16.86
CNC(=O)CCS(=O)(=O)Cc1cc(Cl)c2c(c1)OCCO2,3.991,-13.27
O=C(O)C(F)(F)F.O=C(O)C(F)(F)F.[H][C@@]12C[C@@H](C(=O)NC(C)C)C[C@@]1([H])N(Cc1cccnc1)CCO2,11.19,14.75
[H][C@@]12COC[C@@H](C(=O)N3CCCO3)[C@]1([H])CN(Cc1c(C)noc1C)C2,-17.38 & -10.11,-33.48
O=C(O)C(F)(F)F.O=C(O)C(F)(F)F.[H][C@@]12COC[C@]1(CNS(=O)(=O)CC)CN(Cc1cccnc1OC)C2,-11.18,7.176
O=C(Nc1ccccc1)N1CCn2c(nnc2C2CCNCC2)C1,-23.36,-3.349
O=C(c1cnccn1)N1CCc2onc(CN3CCOCC3)c2C1,-14.11,32.08
Cn1nc(C2CNCCO2)cc1CCOc1ccc(C(F)(F)F)cc1 (centres undefined),-12.93,3.537
CSC(C)CCN1CCCn2nc(CNC(=O)C3CCC3)cc2C1 (centres undefined),-5.196 & -6.145,17.39
CC(=O)N1CCCN(C(=O)NCCNc2ccccn2)CC1,-19.24,-13.31
Cc1cc(C(=O)N2CCCN(Cc3cnn(C)c3)CC2)no1,-0.1025,-21.9
COc1ccc(CC2CN(C3CCSCC3)CCO2)cc1 (centres undefined),-10.41,-8.051
Br.O=C(CN(C1=NCCCC1)c1ccccc1)c1ccccc1,-12.03,-36.45 & -5.856
Cc1cc(=O)[nH]c(-n2nc(C)c(CCC(=O)NCc3cccs3)c2C)n1,-4.032,6.543
O=C(Nc1cc(-c2cccnc2)no1)C1CCCCC1,-6.909,6.912
Fc1cccc(-c2nc(CN3CCOC(Cn4cncn4)C3)co2)c1 (centres undefined),4.08,-8.373
CCCC(O)CN1CC(C)(C)CN(C(=O)c2ccc(SC)cc2)CC1=O (centres undefined),-22.11,-17.32
CN1CCN(C2CCN(C(C(N)=O)c3ccccc3)CC2)C1=O (centres undefined),0.9076,-1.86 & -4.571
COc1ccc(S(=O)(=O)N2CCC(S(C)(=O)=O)CC2)cc1C,11.43,22.38
[H][C@]12CCN(Cc3ccco3)[C@@]1([H])CC[C@H](COCc1cccc(C)n1)O2,9.256,1.793
Cc1noc(C2CCN(Cn3cc(Br)cn3)CC2)n1,-18.57,-36.35
[H][C@@]12CS(=O)(=O)C[C@]1([H])N(C(=O)Nc1ccccc1C)CCN2C(=O)C1CC1,-39.01,-19.09
O=C(O)C(F)(F)F.O=C(c1ccc2[nH]ccc2c1)N1Cc2nc(CN3CCCCC3)oc2C1,-0.9238,5.522 & 0.1613
Nc1nc2c(c(NC(=O)Nc3ccc(Cl)c(Cl)c3)n1)CCCC2,-13.5,-17.05 & -1.133
Cc1cc(C)n(CC2(CNC(=O)C(c3ccc(F)cc3)N(C)C)CC2)n1 (centres undefined),-19.59,-3.962
COc1ccc(Cl)c(-c2noc3ncn(CCC(=O)O)c(=O)c23)c1,-14.03,-23.55
CCc1nnc2n1CCN(C(=O)c1cc3cc(C)ccc3[nH]1)C2,5.148,19.48
c1cnnc(N2CCCC2CNc2nc3ccccc3o2)c1 (centres undefined),-11.61,5.21
CCc1ccc(NC(=O)c2cnc(N3CCN(C)CC3)nc2C)cc1,44.2,1.969
CCn1nc2c(cc1=O)CN(Cc1nnc(C3CC3)o1)CC2,-12.04,-4.499
CC(C)c1ccc(O)c(C(=O)NCc2cc[nH]n2)c1,-3.126 & -0.5151,0.413
Cc1ccc(C(=O)N2CCN(C(=O)NC(C)Cn3ccnc3)CC2)o1 (centres undefined),0.5275,2.798
CCN(CC)CCCNC(=O)c1nn(CC)cc1Cl,14.43,38.73
CNC(=O)CN1CCC(NC(=O)N(C)Cc2c(C)noc2C)CC1,-27.42,6.454
CCCN1C[C@H](NC(=O)c2cc(C)no2)[C@@H](c2ccc(OC)cc2)C1,3.328,10.49
CSc1ncc(C(=O)NCCn2nccc2C)cn1,5.386 & -4.822,-22.08
[H][C@@]12OCCN(c3ncccn3)[C@@]1([H])CC[C@H]2OCc1cccnc1,-33.15,-35.03
COc1ccc(F)cc1CN1CCN(Cc2nccn2C)C(C)C1 (centres undefined),-11.22,-8.639 & 11.31
COc1cccc(CNCc2ccccc2Cl)c1O,-16.49,-18.67 & -1.182
Cc1noc(CNc2c(N3CCCC3)cccc2N2CCCC2)n1,3.155 & 3.237,-12.5
O=C(CCn1cccn1)NCC(c1cccs1)N1CCCC1 (centres undefined),-22.12,-24.72
[H][C@]12CC[C@]([H])(CN(S(=O)(=O)c3cccnc3)C1)N(CC=C(C)C)C2,-4.592,-22.93
CCc1nnc2n1CCN(C(=O)C(C)Oc1ccc(C#N)cc1)C2 (centres undefined),-3.901,-5.7
c1nc(N2CCOC(Cn3cncn3)C2)c2sccc2n1 (centres undefined),-51.73,-19.84
Cc1cccc(NC(=O)c2csc(NCC(C)C)n2)n1,-21.13,1.944
CCn1cc(CN2CCCN(C(=O)c3cccc(C#N)c3)CC2)cn1,-13.25,-28.23
CC(C)(C)C(=O)NCc1cnn2ccccc12,-4.788,12.59
[H][C@@]12CCC(=O)N(CC(C)C)[C@]1([H])CCN(C(=O)CN1CCC(C)=N1)C2,10.91,3.355
COC(=O)c1ccc(C2CC(=O)Oc3cc(C)[nH]c(=O)c32)cc1 (centres undefined),-3.73,-4.538
O=C(COCc1nc(-c2ccncc2)no1)N1CCCCCC1,-11.5,-8.738
CC(C)(C)OC(=O)N1CCCc2ccc(NCc3ccon3)cc21,-3.18,-14.44 & 16.15
CN1CCCC(c2n[nH]c3ncccc23)C1 (centres undefined),-12.17,31.56
CN(C)c1ccccc1CN1CCCC(N2CCCC2=O)C1 (centres undefined),2.555,-5.374
O=C(NCC1CCS(=O)(=O)C1)N1CCN(c2cnccn2)CC1 (centres undefined),11.99,-1.008 & -1.584
CCNc1nc2c(s1)C(=O)CN(C(=O)NCCc1ccccc1)C2,6.358,-7.887
Cc1ncccc1Oc1ncnc(N2CCCC(O)(CO)CC2)c1C (centres undefined),19.12,11.53
O=C(O)C(F)(F)F.[H][C@@]12OCCN(C(=O)c3ccoc3C)[C@@]1([H])CC[C@H]2OCc1ccccn1,-6.198 & -7.494,-32.24
O=C(O)C(F)(F)F.[H][C@@]12CN(C)CCO[C@]1([H])CN(S(=O)(=O)c1ccccc1)C2,-18.42,-17.65
CC(C)S(=O)(=O)CC(=O)NCC(Cc1ccc(F)cc1)C(N)=O (centres undefined),-5.638,2.056
CCN1CCC(NC(=O)CN2CCCC2Cn2nc(C)cc2C)CC1 (centres undefined),17.82,8.755
CCc1nnsc1C(=O)NC(CC(C)C)C(=O)OC (centres undefined),-8.701,32.94 & 43.15
O=C(c1cc(Cl)c2c(c1)OCCCO2)N(CC1CCOC1)C1CC1 (centres undefined),3.499,-13.35
Cc1nc(CCCNC(=O)c2c(F)cc(F)cc2F)n[nH]1,-20.79,0.3118
CC(C)N1CCN(C(=O)C(C)n2cncn2)CC1 (centres undefined),-18.98,-18.82
Cc1ncsc1C(=O)N[C@@H](Cc1ccccc1)C(N)=O,-6.977,-10.47 & -13.74
CCc1nnc(CN(CC)C(=O)C2CC(=O)N(C3CCCC3)C2)o1 (centres undefined),11.49,-14.29
COc1ncc(-c2ccc(O)cc2)c(OC)n1,10.88,9.082 & 20.02

For reference, 9 entries once more:

{"smiles": "CN(C)c1nc2c(c(N(C)Cc3n[nH]c4c3CCCC4)n1)CCNCC2", "Mtb cholesterol medium": 27.23, "Mtb glucose medium": 37.94}
{"smiles": "O=C(COCc1nc(-c2ccncc2)no1)N1CCCCCC1", "Mtb cholesterol medium": -11.5, "Mtb glucose medium": -8.738}
{"smiles": "COc1ccc(F)cc1CN1CCN(Cc2nccn2C)C(C)C1", "stereo": "centres undefined", "Mtb cholesterol medium": -11.22, "Mtb glucose medium": "-8.639 & 11.31"}
{"smiles": "Clc1ccc(OCCN2CCN(CCn3cncn3)CC2)cc1", "Mtb cholesterol medium": -6.348, "Mtb glucose medium": 3.411}
{"smiles": "Cc1noc(C2CCN(Cn3cc(Br)cn3)CC2)n1", "Mtb cholesterol medium": -18.57, "Mtb glucose medium": -36.35}
{"smiles": "O=C(O)C(F)(F)F.[H][C@@]12CCN(S(=O)(=O)C3CC3)C[C@]1(COc1ncccc1F)CCO2", "Mtb cholesterol medium": "2.442 & -6.972", "Mtb glucose medium": "2.426 & 2.002"}
{"smiles": "Cc1nc(CCCNC(=O)c2c(F)cc(F)cc2F)n[nH]1", "Mtb cholesterol medium": -20.79, "Mtb glucose medium": 0.3118}
{"smiles": "Cc1ncsc1C(=O)N[C@@H](Cc1ccccc1)C(N)=O", "Mtb cholesterol medium": -6.977, "Mtb glucose medium": "-10.47 & -13.74"}
{"smiles": "Cn1nc(C2CNCCO2)cc1CCOc1ccc(C(F)(F)F)cc1", "stereo": "centres undefined", "Mtb cholesterol medium": -12.93, "Mtb glucose medium": 3.537}

From ChEMBL document CHEMBL3988442, “University of Dundee, Small-Polar-MMV Screening Library” (2021).